PubChem BioAssay AID686938 – Drosophila RNAi Screening Center – 2013

Aim: 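Looking for CRAC channel components and the factors controlling them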 (primary screen)
Cell system: Drosophila S2R+ cells
Reagents: long dsRNA against Drosophila genes, about 0.25 µg dsRNA per well, roughly 10,000 cells
Time to read-out: 5 days of knock-down before the calcium assay
Treatment: thapsigargin (SERCA pump blocker) to empty calcium stores; entry signal taken 4 min after adding it
Detection: 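Per-well fluo-4 fluorescence in two replicates, unnormalised, measured in resting cells and 4 min after store depletion by the SERCA blocker thapsigargin; ratio of the two present in few wells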
Reading the numbers: calcium entry signal: higher = stronger calcium signal after store depletion; entry to resting ratio: higher = more calcium entry relative to resting level; resting calcium signal: higher = higher resting calcium signal
Active means: 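Hit if the duplicate-averaged plate z-score for entry over resting signal is under −3; wells with weak total dye signal (Fmax z < −2) or more than 5 off-targets removed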
Calls: active = strongly reduced calcium entry; inactive = no strong reduction
In all, the deposit lists about 23,000 reagents; this is a random part of those with a known target gene and a result. Of all reagents, 75 (0.33%) were called active. 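Raw plate signals without normalisation; calls rest on plate z-scores that were not deposited; ratio present for only 364 wells.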 Reagents against one gene are numbered here. Names joined by + are all predicted targets of the reagent. No sequences are given here. The record does not give: the dose of the treatment.

{"gene knocked down": "Pal1 + Pdrg1", "reagent no.": 1, "calcium entry signal, replicate 1 (fluorescence units)": 2.29e7, "calcium entry signal, replicate 2 (fluorescence units)": 2.32e7, "resting calcium signal, replicate 1 (fluorescence units)": 1.09e7, "resting calcium signal, replicate 2 (fluorescence units)": 1.05e7, "Outcome": "inactive"}
{"gene knocked down": "Vps11", "reagent no.": 1, "calcium entry signal, replicate 1 (fluorescence units)": 4.11e7, "calcium entry signal, replicate 2 (fluorescence units)": 4.41e7, "resting calcium signal, replicate 1 (fluorescence units)": 1.91e7, "resting calcium signal, replicate 2 (fluorescence units)": 1.99e7, "Outcome": "inactive"}
{"gene knocked down": "Vps11", "reagent no.": 2, "calcium entry signal, replicate 1 (fluorescence units)": 3.77e7, "calcium entry signal, replicate 2 (fluorescence units)": 3.09e7, "resting calcium signal, replicate 1 (fluorescence units)": 2.30e7, "resting calcium signal, replicate 2 (fluorescence units)": 1.53e7, "Outcome": "inactive"}
{"gene knocked down": "CG12995", "reagent no.": 1, "calcium entry signal, replicate 1 (fluorescence units)": 4.25e7, "calcium entry signal, replicate 2 (fluorescence units)": 3.82e7, "resting calcium signal, replicate 1 (fluorescence units)": 2.17e7, "resting calcium signal, replicate 2 (fluorescence units)": 1.66e7, "Outcome": "inactive"}
{"gene knocked down": "RpL4", "reagent no.": 1, "calcium entry signal, replicate 1 (fluorescence units)": 1.72e7, "calcium entry signal, replicate 2 (fluorescence units)": 1.45e7, "resting calcium signal, replicate 1 (fluorescence units)": 1.21e7, "resting calcium signal, replicate 2 (fluorescence units)": 9.62e6, "Outcome": "inactive"}
{"gene knocked down": "ZAP3", "reagent no.": 1, "calcium entry signal, replicate 1 (fluorescence units)": 4.11e7, "calcium entry signal, replicate 2 (fluorescence units)": 4.46e7, "resting calcium signal, replicate 1 (fluorescence units)": 1.99e7, "resting calcium signal, replicate 2 (fluorescence units)": 2.07e7, "Outcome": "inactive"}
{"gene knocked down": "ZAP3", "reagent no.": 2, "calcium entry signal, replicate 1 (fluorescence units)": 3.94e7, "calcium entry signal, replicate 2 (fluorescence units)": 4.20e7, "resting calcium signal, replicate 1 (fluorescence units)": 1.95e7, "resting calcium signal, replicate 2 (fluorescence units)": 2.13e7, "Outcome": "inactive"}
{"gene knocked down": "ZAP3", "reagent no.": 3, "calcium entry signal, replicate 1 (fluorescence units)": 3.29e7, "calcium entry signal, replicate 2 (fluorescence units)": 4.36e7, "resting calcium signal, replicate 1 (fluorescence units)": 1.68e7, "resting calcium signal, replicate 2 (fluorescence units)": 1.99e7, "Outcome": "inactive"}

Reformatted: entries from further up
{"gene knocked down":"RpL4","reagent no.":1,"calcium entry signal, replicate 1 (fluorescence units)":1.72e7,"calcium entry signal, replicate 2 (fluorescence units)":1.45e7,"resting calcium signal, replicate 1 (fluorescence units)":1.21e7,"resting calcium signal, replicate 2 (fluorescence units)":9.62e6,"Outcome":"inactive"}
{"gene knocked down":"ZAP3","reagent no.":1,"calcium entry signal, replicate 1 (fluorescence units)":4.11e7,"calcium entry signal, replicate 2 (fluorescence units)":4.46e7,"resting calcium signal, replicate 1 (fluorescence units)":1.99e7,"resting calcium signal, replicate 2 (fluorescence units)":2.07e7,"Outcome":"inactive"}
{"gene knocked down":"ZAP3","reagent no.":2,"calcium entry signal, replicate 1 (fluorescence units)":3.94e7,"calcium entry signal, replicate 2 (fluorescence units)":4.20e7,"resting calcium signal, replicate 1 (fluorescence units)":1.95e7,"resting calcium signal, replicate 2 (fluorescence units)":2.13e7,"Outcome":"inactive"}

More entries:
{"gene knocked down": "CG34297", "reagent no.": 1, "calcium entry signal, replicate 1 (fluorescence units)": 2.15e7, "calcium entry signal, replicate 2 (fluorescence units)": 3.78e7, "resting calcium signal, replicate 1 (fluorescence units)": 1.20e7, "resting calcium signal, replicate 2 (fluorescence units)": 1.70e7, "Outcome": "inactive"}
{"gene knocked down": "SLC22A", "reagent no.": 1, "calcium entry signal, replicate 1 (fluorescence units)": 3.31e7, "calcium entry signal, replicate 2 (fluorescence units)": 5.31e7, "resting calcium signal, replicate 1 (fluorescence units)": 1.71e7, "resting calcium signal, replicate 2 (fluorescence units)": 2.39e7, "Outcome": "inactive"}
{"gene knocked down": "SLC22A", "reagent no.": 2, "calcium entry signal, replicate 1 (fluorescence units)": 3.51e7, "calcium entry signal, replicate 2 (fluorescence units)": 5.73e7, "resting calcium signal, replicate 1 (fluorescence units)": 1.59e7, "resting calcium signal, replicate 2 (fluorescence units)": 2.29e7, "Outcome": "inactive"}
{"gene knocked down": "CG8034", "reagent no.": 1, "calcium entry signal, replicate 1 (fluorescence units)": 2.72e7, "calcium entry signal, replicate 2 (fluorescence units)": 3.14e7, "resting calcium signal, replicate 1 (fluorescence units)": 1.47e7, "resting calcium signal, replicate 2 (fluorescence units)": 1.51e7, "Outcome": "inactive"}
{"gene knocked down": "nvd", "reagent no.": 1, "calcium entry signal, replicate 1 (fluorescence units)": 2.68e7, "calcium entry signal, replicate 2 (fluorescence units)": 4.76e7, "resting calcium signal, replicate 1 (fluorescence units)": 1.30e7, "resting calcium signal, replicate 2 (fluorescence units)": 2.24e7, "Outcome": "inactive"}
{"gene knocked down": "CG6724", "reagent no.": 1, "calcium entry signal, replicate 1 (fluorescence units)": 2.49e7, "calcium entry signal, replicate 2 (fluorescence units)": 4.06e7, "resting calcium signal, replicate 1 (fluorescence units)": 1.27e7, "resting calcium signal, replicate 2 (fluorescence units)": 1.90e7, "Outcome": "inactive"}
{"gene knocked down": "Acer", "reagent no.": 1, "calcium entry signal, replicate 1 (fluorescence units)": 5.00e7, "resting calcium signal, replicate 1 (fluorescence units)": 2.25e7, "Outcome": "inactive"}
{"gene knocked down": "CG9175", "reagent no.": 1, "calcium entry signal, replicate 1 (fluorescence units)": 4.37e7, "resting calcium signal, replicate 1 (fluorescence units)": 2.36e7, "Outcome": "inactive"}
{"gene knocked down": "CG13531", "reagent no.": 1, "calcium entry signal, replicate 1 (fluorescence units)": 4.82e7, "calcium entry signal, replicate 2 (fluorescence units)": 4.63e7, "resting calcium signal, replicate 1 (fluorescence units)": 2.31e7, "resting calcium signal, replicate 2 (fluorescence units)": 2.11e7, "Outcome": "inactive"}
{"gene knocked down": "gkt", "reagent no.": 1, "calcium entry signal, replicate 1 (fluorescence units)": 2.57e7, "calcium entry signal, replicate 2 (fluorescence units)": 2.45e7, "resting calcium signal, replicate 1 (fluorescence units)": 1.27e7, "resting calcium signal, replicate 2 (fluorescence units)": 1.21e7, "Outcome": "inactive"}
{"gene knocked down": "CG14778", "reagent no.": 1, "calcium entry signal, replicate 1 (fluorescence units)": 4.44e7, "calcium entry signal, replicate 2 (fluorescence units)": 4.71e7, "entry to resting ratio": 2, "resting calcium signal, replicate 1 (fluorescence units)": 2.24e7, "resting calcium signal, replicate 2 (fluorescence units)": 2.04e7, "Outcome": "inactive"}
{"gene knocked down": "CG15743", "reagent no.": 1, "calcium entry signal, replicate 1 (fluorescence units)": 3.69e7, "calcium entry signal, replicate 2 (fluorescence units)": 5.16e7, "resting calcium signal, replicate 1 (fluorescence units)": 1.77e7, "resting calcium signal, replicate 2 (fluorescence units)": 2.32e7, "Outcome": "inactive"}
{"gene knocked down": "Drp1", "reagent no.": 1, "calcium entry signal, replicate 1 (fluorescence units)": 3.61e7, "resting calcium signal, replicate 1 (fluorescence units)": 2.12e7, "Outcome": "inactive"}
